PubChem BioAssay AID686938, Drosophila RNAi Screening Center – 2013

- Purpose: 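Knock-downs reducing store-operated calcium influx in Drosophila cells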 (primary screen)
- Cells: Drosophila S2R+ cells
- Knock-down reagent: long dsRNA against Drosophila genes, about 0.25 µg dsRNA per well, roughly 10,000 cells
- Duration: 5 days of knock-down before the calcium assay
- Treatment: thapsigargin (SERCA pump blocker) to empty calcium stores; entry signal taken 4 min after adding it
- Measured: 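Duplicate raw fluo-4 intensities per well from a plate reader, at rest and four minutes after thapsigargin emptied calcium stores; entry-to-rest ratio filled for only some wells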
- Direction: calcium entry signal: higher = stronger calcium signal after store depletion; entry to resting ratio: higher = more calcium entry relative to resting level; resting calcium signal: higher = higher resting calcium signal
- Rule for the call: 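Called when the plate z-score of the entry-to-rest ratio, mean of duplicates, falls below −3; wells with low overall dye signal (Fmax z below −2) or more than five off-targets excluded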
- Meaning of the calls: active = strongly reduced calcium entry; inactive = no strong reduction
The deposit covers about 23,000 reagents; below is an unselected part of those with a known target gene and a result. Over the whole deposit, 75 (0.33%) are marked active. 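Raw plate signals without normalisation; calls rest on plate z-scores that were not deposited; ratio present for only 364 wells.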 A number with no mark means an inactive call. Names joined by + are all predicted targets of the reagent. Reagent sequences are not shown. Not given: the dose of the treatment.

| gene knocked down | dsRNA | calcium entry signal, replicate 1 (fluorescence units) | calcium entry signal, replicate 2 (fluorescence units) | entry to resting ratio | resting calcium signal, replicate 1 (fluorescence units) | resting calcium signal, replicate 2 (fluorescence units) |
| --- | --- | --- | --- | --- | --- | --- |
| TBC1D16 (GeneID 34431) | DRSC02841 | 2.79e7 | 4.33e7 | – | 1.40e7 | 1.80e7 |
| CG43153 (GeneID 12798157) | DRSC01189 | 3.78e7 | 4.48e7 | – | 1.85e7 | 1.83e7 |
| Ae2 (GeneID 39147) | DRSC08997 | 3.94e7 | 2.96e7 | – | 2.03e7 | 1.59e7 |
| Ae2 (GeneID 39147) | DRSC10969 | 5.39e7 | 3.74e7 | – | 3.48e7 | 1.54e7 |
| CG6664 (GeneID 39903) | DRSC10690 | 3.02e7 | 5.00e7 | – | 1.36e7 | 3.14e7 |
| PolA1 (GeneID 42553) | DRSC16640 | 2.12e7 | 2.25e7 | – | 1.31e7 | 1.16e7 |
| Oseg2 (GeneID 38282) | DRSC08343 | 2.75e7 | 3.05e7 | – | 1.39e7 | 1.38e7 |
| CG17580 (GeneID 50228) | DRSC06683 | 3.59e7 | 3.64e7 | – | 1.87e7 | 1.63e7 |
| CCAP-R (GeneID 2768688) | DRSC14891 | 3.92e7 | 6.28e7 | – | 2.01e7 | 2.68e7 |
| CCAP-R (GeneID 2768688) | DRSC15967 | 4.21e7 | 7.50e7 | – | 2.13e7 | 2.77e7 |
| CG2652 (GeneID 31250) | DRSC18501 | 4.68e7 | 7.51e7 | – | 2.16e7 | 3.00e7 |
| CG2652 (GeneID 31250) | DRSC22576 | 3.16e7 | 3.76e7 | – | 1.58e7 | 1.53e7 |
| CG44836 (GeneID 39825) | DRSC09915 | 3.91e7 | 7.64e7 | – | 2.17e7 | 3.06e7 |
| CG7546 (GeneID 38844) | DRSC08885 | 4.29e7 | 4.47e7 | – | 2.44e7 | 2.02e7 |
| CG7546 (GeneID 38844) | DRSC10871 | 4.65e7 | 3.14e7 | – | 3.08e7 | 1.73e7 |
| CG7546 (GeneID 38844) | DRSC22148 | 2.58e7 | 3.18e7 | – | 1.28e7 | 1.71e7 |
| fd96Cb (GeneID 43011) | DRSC16947 | 2.32e7 | 6.03e7 | – | 2.32e7 | 2.63e7 |
| CG10959 (GeneID 31743) | DRSC17769 | 2.53e7 | 2.34e7 | – | 1.11e7 | 9.89e6 |
| CG13423 (GeneID 37315) | DRSC06386 | 3.88e7 | 3.83e7 | – | 1.89e7 | 1.86e7 |
| MED20 (GeneID 43952) | DRSC03463 | 2.57e7 | 3.50e7 | – | 1.28e7 | 1.61e7 |
| eEF1delta (GeneID 34363) | DRSC02790 | 4.03e7 | – | – | 1.94e7 | – |
| ND5 (retired record) (GeneID 192478) | DRSC21281 | 4.98e7 | 4.63e7 | – | 2.45e7 | 1.98e7 |
| CG34167 (GeneID 5740831) | DRSC01525 | 3.34e7 | 4.49e7 | – | 1.84e7 | 2.13e7 |
| nuf (GeneID 39572) | DRSC11379 | 3.24e7 | 4.89e7 | – | 1.55e7 | 2.15e7 |
| nuf (GeneID 39572) | DRSC22524 | 2.63e7 | 2.85e7 | – | 1.59e7 | 1.45e7 |
| nuf (GeneID 39572) | DRSC23276 | 4.41e7 | 4.45e7 | – | 1.80e7 | 1.76e7 |
| Kank (GeneID 36668) | DRSC05513 | 2.82e7 | 4.89e7 | – | 1.27e7 | 2.12e7 |
| Kank (GeneID 36668) | DRSC05933 | 4.66e7 | 4.12e7 | – | 2.06e7 | 2.08e7 |
| Ebp (GeneID 38009) | DRSC04048 | 3.42e7 | – | – | 1.63e7 | – |
| CG1640 (GeneID 32292) | DRSC19750 | 4.41e7 | 4.06e7 | – | 1.92e7 | 1.84e7 |
| Trm7-32 (GeneID 42056) | DRSC15741 | 3.84e7 | 3.20e7 | – | 1.70e7 | 1.44e7 |
| CG3546 (GeneID 31389) | DRSC18308 | 3.87e7 | 5.28e7 | – | 2.19e7 | 2.40e7 |
| HP1Lcsd (GeneID 12798145) | DRSC03999 | 2.26e7 | 3.49e7 | – | 1.21e7 | 1.52e7 |
| CG2921 (GeneID 37515) | DRSC04324 | 3.02e7 | – | – | 1.49e7 | – |
| Vajk1 (GeneID 34809) | DRSC01882 | 4.71e7 | 2.79e7 | – | 1.84e7 | 1.29e7 |
| ouib (GeneID 41039) | DRSC14376 | 4.89e7 | 3.06e7 | – | 2.50e7 | 1.56e7 |
| CG40191 (GeneID 3354930) | DRSC21041 | 6.40e7 | 3.47e7 | – | 3.02e7 | 1.35e7 |
| CG13795 (GeneID 34049) | DRSC02299 | 3.06e7 | 4.44e7 | – | 1.42e7 | 1.92e7 |
| CG12279 (GeneID 41570) | DRSC14495 | 3.20e7 | 3.84e7 | – | 1.47e7 | 1.79e7 |
| CG31269 (GeneID 318653) | DRSC15744 | 3.76e7 | 4.88e7 | – | 1.78e7 | 5.85e7 |
| PH4alphaNE3 (GeneID 326114) | DRSC16541 | 5.73e7 | 5.87e7 | – | 2.66e7 | 2.57e7 |
| CG5504 (GeneID 48844) | DRSC04701 | 4.67e7 | – | – | 2.40e7 | – |
| CG32681 (GeneID 318151) | DRSC17646 | 3.32e7 | 3.60e7 | – | 1.48e7 | 1.68e7 |
| Or22b (GeneID 33336) | DRSC00765 | 3.51e7 | 5.46e7 | – | 1.75e7 | 2.09e7 |
| CG1271 (GeneID 38364) | DRSC08290 | 3.82e7 | 2.40e7 | – | 2.68e7 | 1.01e7 |
| CG33978 (GeneID 3885646) | DRSC17106 | 5.14e7 | 2.79e7 | – | 2.30e7 | 1.28e7 |
| CG15745 (retired record) (GeneID 32283) | DRSC19711 | 4.31e7 | 6.38e7 | – | 2.07e7 | 2.83e7 |
| Naa20B (GeneID 318982) | DRSC21442 | 3.94e7 | 3.02e7 | – | 2.41e7 | 1.39e7 |
| CG31245 (GeneID 42316) | DRSC15498 | 3.75e7 | 3.86e7 | – | 6.87e7 | 1.73e7 |
| Septin4 (GeneID 32646) | DRSC20205 | 2.82e7 | 2.88e7 | – | 1.48e7 | 1.36e7 |
| SC35 (GeneID 53444) | DRSC02502 | 4.63e7 | 3.16e7 | – | 2.10e7 | 1.52e7 |
| SC35 (GeneID 53444) | DRSC03425 | 4.35e7 | 2.68e7 | – | 1.88e7 | 1.28e7 |
| Coq9 (GeneID 246650) | DRSC22913 | 4.36e7 | 3.60e7 | – | 2.53e7 | 1.77e7 |
| retn (GeneID 45976) | DRSC04679 | 3.73e7 | 4.91e7 | – | 1.93e7 | 2.07e7 |
| CG5446 (GeneID 34655) | DRSC02862 | 3.71e7 | 2.74e7 | – | 1.75e7 | 1.27e7 |
| hook (GeneID 35169) | DRSC03545 | 5.43e7 | – | – | 2.72e7 | – |
| CG15760 (GeneID 32324) | DRSC19725 | 3.56e7 | 4.35e7 | – | 1.80e7 | 2.18e7 |
| CG34166 (GeneID 5740596) | DRSC02482 | 3.54e7 | 1.75e7 | – | 1.86e7 | 1.02e7 |
| mbm (GeneID 33194) | DRSC00319 | 3.77e7 | – | – | 2.02e7 | – |
| CG11110 (GeneID 37337) | DRSC06037 | 1.84e7 | 2.53e7 | – | 9.70e6 | 1.24e7 |
| CG2157 (GeneID 32018) | DRSC19836 | 3.83e7 | 5.95e7 | – | 1.93e7 | 2.78e7 |
| CG11099 (GeneID 37282) | DRSC06034 | 4.82e7 | 5.32e7 | – | 2.11e7 | 2.29e7 |
| Gr33a (GeneID 34641) | DRSC02589 | 4.17e7 | 2.45e7 | – | 1.90e7 | 1.20e7 |
| CG3706 (GeneID 53540) | DRSC18649 | 4.00e7 | 3.03e7 | 2.4 | 1.69e7 | 1.32e7 |
| His1:CG33816 + His1:CG33828 + His1:CG33819 + 21 more | DRSC21266 | 3.56e7 | 3.65e7 | – | 1.82e7 | 1.70e7 |
| r-cup (GeneID 33075) | DRSC20475 | 3.64e7 | 5.07e7 | – | 1.98e7 | 2.22e7 |
| ergic53 (GeneID 44679) | DRSC11389 | 3.21e7 | 4.59e7 | – | 1.60e7 | 1.86e7 |
| promL (GeneID 38372) | DRSC08733 | 3.55e7 | 2.95e7 | – | 2.36e7 | 1.24e7 |
| Fadd (GeneID 42594) | DRSC14122 | 4.24e7 | 5.15e7 | – | 3.43e7 | 2.30e7 |
| CG11018 (GeneID 37259) | DRSC06024 | 3.18e7 | 2.78e7 | – | 1.49e7 | 1.43e7 |
| CG14153 (GeneID 39208) | DRSC10155 | 2.24e7 | 3.15e7 | – | 1.24e7 | 1.37e7 |
| CG14153 (GeneID 39208) | DRSC22595 | 2.62e7 | 2.99e7 | – | 1.54e7 | 1.40e7 |
| Sce (GeneID 43327) | DRSC16825 | 3.22e7 | 3.85e7 | – | 1.64e7 | 2.00e7 |
| CG34281 (GeneID 50039) | DRSC14807 | 2.95e7 | 5.34e7 | – | 1.67e7 | 6.26e7 |
| Fntb (GeneID 41989) | DRSC15244 | 3.15e7 | 2.83e7 | – | 1.50e7 | 1.37e7 |

6 entries already listed, ordered by “calcium entry signal, replicate 1 (fluorescence units)”, low to high:
| gene knocked down | dsRNA | calcium entry signal, replicate 1 (fluorescence units) | calcium entry signal, replicate 2 (fluorescence units) | entry to resting ratio | resting calcium signal, replicate 1 (fluorescence units) | resting calcium signal, replicate 2 (fluorescence units) |
| --- | --- | --- | --- | --- | --- | --- |
| HP1Lcsd (GeneID 12798145) | DRSC03999 | 2.26e7 | 3.49e7 | – | 1.21e7 | 1.52e7 |
| CG2921 (GeneID 37515) | DRSC04324 | 3.02e7 | – | – | 1.49e7 | – |
| Trm7-32 (GeneID 42056) | DRSC15741 | 3.84e7 | 3.20e7 | – | 1.70e7 | 1.44e7 |
| CG3546 (GeneID 31389) | DRSC18308 | 3.87e7 | 5.28e7 | – | 2.19e7 | 2.40e7 |
| CG1640 (GeneID 32292) | DRSC19750 | 4.41e7 | 4.06e7 | – | 1.92e7 | 1.84e7 |
| Vajk1 (GeneID 34809) | DRSC01882 | 4.71e7 | 2.79e7 | – | 1.84e7 | 1.29e7 |
